Experimental data from PubChem BioAssay AID493014 (National Center for Advancing Translational Sciences (NCATS), 2011).
Some of the results follow. Shown are side measurements of this screen, not its main read-out; they come without a call. Most of these compounds were active or inconclusive in the main read-out, so they are no random draw. Words in brackets tell the shape of the fitted curve; partial curves, single points and poor fits give uncertain potencies.

Test: qHTS Assay to Find Inhibitors of Chronic Active B-Cell Receptor Signaling
Conditions: ABC-DLBCL IkBa-CBG/CBR reporter, luminescence ratio (green luciferase fused to IkBa over red control in TMD8 lymphoma cells), 4 h
Method in brief: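 Concentration-response series (up to 46 uM) were applied to TMD8 dual-reporter cells for 4 h at 37C with doxycycline. Green/red ratio, after filter-overlap correction, defined %Activity; red signal alone was normalised to basal cells and zero luminescence.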

[1] = measured here: CBR red luminescence, cell number
[2] = measured here: IkBa-CBG green luminescence

Compound	AC50 [1]	AC50 [2]
CC1Oc2ccccc2N(CC(=O)NC2CCCCC2)C1=O (stereo not drawn)	12.6 µM [falling, partial curve, poor fit]	
COc1ccc(C/C(C)=N/NC(=O)C2COc3ccccc3O2)cc1 (stereo not drawn)	35.5 µM [rising, partial curve, poor fit]	
Cc1ccc(/C=N/NC(=O)c2ccccn2)s1	9.2 µM [falling, partial curve]	
COC(=O)C1=C(C)NC(=O)NC1c1cc(Cl)ccc1OC (stereo not drawn)	29.1 µM [rising, single point]	
Cc1oc(CSCCSCc2cc(C(=O)O)c(C)o2)cc1C(=O)O	14.1 µM [rising, single point]	
O=S(=O)(/N=C(/Nc1cccnc1)c1ccccc1)c1ccc(F)cc1F	0.184 µM [falling, full curve, poor fit]	
CCn1c(SC)nc2c(c1=O)SC(C)C2 (stereo not drawn)	7.31 µM [rising, partial curve, poor fit]	
O=C(Cn1ncc2c(=O)oc3ccccc3c21)N(Cc1ccco1)C1CCCCC1	3.66 µM [falling, full curve, poor fit]	
O=C(COC(=O)c1cccs1)c1ccc2c(c1)OCCO2	29.1 µM [falling, single point]	
O=c1c(Cl)c(Cl)cnn1-c1ccccc1	5.17 µM [falling, full curve]	5.17 µM [rising, full curve]
C[C@H](Cc1ccccc1)Nc1ncnc2c1ncn2[C@@H]1O[C@H](CO)[C@@H](O)[C@H]1O	2.31 µM [rising, partial curve]	1.84 µM [falling, partial curve]
COc1ccc(C)cc1NC(=O)C(Sc1nnc(-c2cccs2)o1)c1ccccc1 (stereo not drawn)	1.64 µM [rising, full curve, poor fit]	
O=C(OCc1ccccc1F)c1ccc2c(c1)OCCO2	23.1 µM [rising, partial curve, poor fit]	
CCn1cnc2c1c(=O)n(CC(=O)Nc1cc(C)on1)c(=O)n2Cc1ccccc1	2.82 µM [rising, full curve]	
O=C(Nc1cccc(O)c1)c1noc2c1CCc1ccccc1-2	7.31 µM [falling, partial curve, poor fit]	
Cc1ccc2nc(SCC(=O)Nc3ccc(F)cc3F)[nH]c2c1	5.62 µM [falling, partial curve, poor fit]	
CCc1ccc(NC(=O)c2cnn(-c3ccccc3)c2C)cc1	4.61 µM [rising, full curve]	
Cc1nc(C)c(C(=O)N/N=C/c2cn(C)c3ccccc23)s1	6.51 µM [falling, partial curve, poor fit]	
COc1cc(-c2c(-c3cc(OC)c(OC)c(OC)c3)noc2C)ccc1F	3.16 µM [rising, full curve]	3.55 µM [falling, partial curve, poor fit]
CC(=O)c1cc2c(cc1NC(=O)CN1CCC(Cc3ccccc3)CC1)OCO2	0.651 µM [rising, partial curve, poor fit]	
CCCCCCC(=O)c1c(C)[nH]c(C(=O)OCC)c1C	0.58 µM [rising, full curve, poor fit]	
O=C(COc1ccc2ccccc2c1)Nc1nccs1	3.98 µM [falling, full curve, poor fit]	
CCOC(=O)c1c(S(=O)(=O)N2CCCC(C(=O)Nc3ccccn3)C2)c(C)n(C)c1C (stereo not drawn)	2.82 µM [falling, full curve]	
Cc1c(Cl)cccc1NC(=O)CC1SCCNC1=O (stereo not drawn)	0.103 µM [rising, full curve, poor fit]	
CCOc1ccccc1NC(=O)c1c(NCc2cccs2)sc2c1CCC(C)C2 (stereo not drawn)	6.31 µM [rising, single point]	
CCC(CC)C(=O)Nc1c2c(nn1-c1ccc(C)cc1)CS(=O)(=O)C2	15.8 µM [rising, partial curve, poor fit]	
COC(=O)c1cc(S(=O)(=O)C(C)C)c(S(C)=O)s1 (stereo not drawn)	15.8 µM [falling, single point]	
CCOC(=O)c1c(C)[nH]c(C(=O)CSc2ccc(Cl)cc2)c1C	3.26 µM [rising, full curve, poor fit]	
CCCCNC(=O)c1onc(CSc2ccccc2F)c1C(=O)O	35.5 µM [falling, single point]	
COc1cc(S(=O)(=O)Nc2ccc(C)cc2)ccc1NC(=O)c1ccncc1	29.1 µM [falling, single point]	

Part of the list above in another layout:
Compound,AC50 [1],AC50 [2]
COC(=O)C1=C(C)NC(=O)NC1c1cc(Cl)ccc1OC (stereo not drawn),"29.1 µM [rising, single point]",
CCOC(=O)c1c(C)[nH]c(C(=O)CSc2ccc(Cl)cc2)c1C,"3.26 µM [rising, full curve, poor fit]",
